Data as given in EP1662255A2 (THE JOHNS HOPKINS UNIVERSITY SCHOOL OF MEDICINE, dated 2006).
No constants are given. Whether binding was seen depends on the method and setting. Binding seen in cells or lysates may run through a third protein. Binding calls can cover weak binding; strength is not graded here. Where a sequence is shown, tags or fusion partners need not be part of it.

Target: T1, carboxy-terminal 347 amino acids of GKAP-3 (amino-terminal myc tag) (rat) (UniProt P97838)
T1 sequence (looked up): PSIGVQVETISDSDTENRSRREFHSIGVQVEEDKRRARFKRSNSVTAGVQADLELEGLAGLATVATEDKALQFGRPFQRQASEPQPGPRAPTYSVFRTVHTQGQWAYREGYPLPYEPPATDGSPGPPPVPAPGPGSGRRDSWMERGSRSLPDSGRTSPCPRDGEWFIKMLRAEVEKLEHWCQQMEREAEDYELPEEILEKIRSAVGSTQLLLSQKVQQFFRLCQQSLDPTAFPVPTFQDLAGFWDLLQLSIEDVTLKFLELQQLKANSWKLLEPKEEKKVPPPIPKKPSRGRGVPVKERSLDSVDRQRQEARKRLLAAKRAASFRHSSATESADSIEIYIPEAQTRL
Experiment: GST pulldown from HEK293 lysate

Substance: GST fusion of Shank3 PDZ domain (residues 559-673)
- binding: binds
